Measurements reported in PubChem BioAssay AID504774 (Drosophila RNAi Screening Center, 2011).
In all, the deposit lists about 23,000 reagents; shown is a random part of those with a known target gene and a result. 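Values are quantile-normalised luminescence on an arbitrary scale; higher means more cells surviving MMS.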 Reagents against one gene are numbered here.

- Aim: 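Fly genes whose loss alters survival after alkylation damage to DNA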 (primary screen)
- Cell system: Drosophila Kc167 cells
- Reagent: long dsRNA against Drosophila genes, about 0.25 µg dsRNA per well
- Timing: about 6 days: 3 days knock-down, then 3 days with or without MMS
- Conditions: methyl methanesulphonate 0.004% (w/v) for 3 days after knock-down
- Measured: 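ATP-dependent luminescence as a measure of live cells in MMS-exposed wells, quantile normalised within each plate, with replicate values also given as a mean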
- Reading the numbers: mean viability with MMS and viability with MMS: higher = more surviving cells after MMS

| target | reagent no. | mean viability with MMS | viability with MMS, replicate 1 | viability with MMS, replicate 2 |
| --- | --- | --- | --- | --- |
| CG14143 | 1 | 3.77e6 | 4.13e6 | 4.31e6 |
| comm2 | 1 | 3.26e6 | 3.73e6 | 3.60e6 |
| comm2 | 2 | 3.70e6 | 4.17e6 | 4.15e6 |
| CG2063 | 1 | 3.22e6 | 3.72e6 | 3.73e6 |
| Rpn8 | 1 | 2.89e6 | 3.44e6 | 3.50e6 |
| Argk1 | 1 | 3.80e6 | 4.18e6 | 4.25e6 |
| Argk1 | 2 | 3.29e6 | 3.72e6 | 3.65e6 |
| Argk1 | 3 | 3.46e6 | 3.94e6 | 3.90e6 |
| Argk1 | 4 | 3.43e6 | 3.93e6 | 3.90e6 |
| Argk1 | 5 | 3.42e6 | 3.86e6 | 3.98e6 |
| CG42246 | 1 | 3.56e6 | 4.03e6 | 4.04e6 |
| Spn85F | 1 | 1.75e6 | 4.04e6 | 3.81e6 |
| Sems | 1 | 3.47e6 | 3.90e6 | 3.94e6 |
| CG31496 | 1 | 1.76e6 | 4.08e6 | 3.80e6 |
| bonsai | 1 | 3.54e6 | 3.89e6 | 4.15e6 |
| CG30083 | 1 | 3.49e6 | 4.02e6 | 3.93e6 |
| CG12084 | 1 | 3.68e6 | 4.20e6 | 4.15e6 |
| Pms2 | 1 | 3.45e6 | 4.03e6 | 3.79e6 |
| CG8252 | 1 | 3.64e6 | 4.10e6 | 4.18e6 |
| CG30196 | 1 | 3.72e6 | 4.16e6 | 4.23e6 |
| CG31288 | 1 | 3.53e6 | 4.04e6 | 3.94e6 |
| Ugt37D1 | 1 | 3.51e6 | 3.98e6 | 3.99e6 |
| CG17826 | 1 | 3.60e6 | 4.01e6 | 4.11e6 |
| CG10911 | 1 | 3.66e6 | 4.08e6 | 4.18e6 |
| Cog7 | 1 | 3.56e6 | 3.97e6 | 4.08e6 |
| Sirt6 | 1 | 3.51e6 | 4.00e6 | 3.97e6 |
| Rsph1 | 1 | 3.44e6 | 3.92e6 | 3.88e6 |
| Ttc19 | 1 | 3.53e6 | 4.01e6 | 4.00e6 |
| sbr | 1 | 3.34e6 | 3.77e6 | 3.82e6 |
| sbr | 2 | 2.93e6 | 3.64e6 | 3.65e6 |
| Polr2J | 1 | 3.57e6 | 3.91e6 | 4.19e6 |
| CG5302 (retired record) | 1 | 3.70e6 | 4.32e6 | 4.08e6 |
| CG5302 (retired record) | 2 | 3.78e6 | 4.32e6 | 4.24e6 |
| CG5302 (retired record) | 3 | 3.53e6 | 4.06e6 | 3.94e6 |
| CG11263 | 1 | 3.61e6 | 4.04e6 | 4.12e6 |
| CG7582 | 1 | 3.40e6 | 3.83e6 | 3.82e6 |

10 entries from above, showing only “viability with MMS, replicate 2”:
CG42246: 4.04e6
Spn85F: 3.81e6
Sems: 3.94e6
CG31496: 3.80e6
bonsai: 4.15e6
CG30083: 3.93e6
CG12084: 4.15e6
Pms2: 3.79e6
CG8252: 4.18e6
CG30196: 4.23e6

Additional entries follow:
| target | reagent no. | mean viability with MMS | viability with MMS, replicate 1 | viability with MMS, replicate 2 |
| --- | --- | --- | --- | --- |
| CG11249 | 1 | 3.67e6 | 4.08e6 | 4.19e6 |
| term | 1 | 3.50e6 | 3.92e6 | 4.03e6 |
| CG15525 | 1 | 3.54e6 | 4.02e6 | 4.00e6 |
| CG14471 (retired record) | 1 | 3.43e6 | 3.92e6 | 3.93e6 |
| Ddx1 | 1 | 3.55e6 | 4.07e6 | 3.96e6 |
| CG31244 | 1 | 3.62e6 | 3.98e6 | 4.21e6 |
| Cyp313a2 | 1 | 3.64e6 | 4.11e6 | 4.07e6 |
| CG9312 | 1 | 3.54e6 | 4.05e6 | 4.00e6 |
| CG30391 | 1 | 3.56e6 | 4.02e6 | 4.08e6 |
| CG42680 | 1 | 3.77e6 | 4.05e6 | 4.36e6 |
| ERp44 | 1 | 3.61e6 | 4.33e6 | 3.95e6 |
| CG14075 | 1 | 3.31e6 | 3.81e6 | 3.64e6 |
| CRAT | 1 | 3.64e6 | 4.16e6 | 4.07e6 |
| Usp32 | 1 | 3.43e6 | 3.88e6 | 3.87e6 |
| Rubicon | 1 | 3.47e6 | 3.93e6 | 3.94e6 |
| Adf1 | 1 | 3.56e6 | 3.96e6 | 4.11e6 |
| Adf1 | 2 | 3.34e6 | 3.60e6 | 3.39e6 |
| Idua | 1 | 3.51e6 | 4.02e6 | 3.93e6 |
| phtf | 1 | 3.62e6 | 4.05e6 | 4.12e6 |
| aru | 1 | 3.62e6 | 4.06e6 | 4.19e6 |
| aru | 2 | 3.66e6 | 4.12e6 | 4.11e6 |
| Cse1 | 1 | 3.26e6 | 3.58e6 | 3.74e6 |
| Daao2 | 1 | 3.35e6 | 3.79e6 | 3.69e6 |
| Gyc89Da | 1 | 3.27e6 | 3.76e6 | 3.63e6 |
| Gmer | 1 | 3.67e6 | 4.17e6 | 4.34e6 |
| CG4586 | 1 | 3.52e6 | 3.78e6 | 4.07e6 |
| Ir56a | 1 | 3.57e6 | 4.02e6 | 4.05e6 |
| pds5 | 1 | 3.46e6 | 3.93e6 | 3.89e6 |
| ND-39 | 1 | 3.52e6 | 3.96e6 | 4.00e6 |
| CG14340 | 1 | 3.59e6 | 4.06e6 | 4.10e6 |
| CG4676 | 1 | 3.56e6 | 4.01e6 | 3.88e6 |
| rols | 1 | 3.58e6 | 4.00e6 | 4.10e6 |
| rols | 2 | 3.42e6 | 3.86e6 | 3.85e6 |
| rols | 3 | 3.59e6 | 3.97e6 | 4.15e6 |
